Assay results from patent publication US20080248024A1, “THERAPEUTIC AGENT FOR CANCER, INFLAMMATION, AND AUTO-IMMUNE DISEASE CONTAINING INHIBITOR OF ZINC FINGER PROTEIN 91” (Korea Research Institute of Bioscience and Biotechnology, priority 2007, published 2008).
No constants are given. Whether binding was seen depends on the method and setting. For some assays here: Binding seen in cells or lysates may run through a third protein. Some entries that bind do so weakly or less than the wild type. Tags and fused reporters may be left off the sequences shown.

Chains of the proteins cited; added tags and fusions are not shown.
UniProt Q99558: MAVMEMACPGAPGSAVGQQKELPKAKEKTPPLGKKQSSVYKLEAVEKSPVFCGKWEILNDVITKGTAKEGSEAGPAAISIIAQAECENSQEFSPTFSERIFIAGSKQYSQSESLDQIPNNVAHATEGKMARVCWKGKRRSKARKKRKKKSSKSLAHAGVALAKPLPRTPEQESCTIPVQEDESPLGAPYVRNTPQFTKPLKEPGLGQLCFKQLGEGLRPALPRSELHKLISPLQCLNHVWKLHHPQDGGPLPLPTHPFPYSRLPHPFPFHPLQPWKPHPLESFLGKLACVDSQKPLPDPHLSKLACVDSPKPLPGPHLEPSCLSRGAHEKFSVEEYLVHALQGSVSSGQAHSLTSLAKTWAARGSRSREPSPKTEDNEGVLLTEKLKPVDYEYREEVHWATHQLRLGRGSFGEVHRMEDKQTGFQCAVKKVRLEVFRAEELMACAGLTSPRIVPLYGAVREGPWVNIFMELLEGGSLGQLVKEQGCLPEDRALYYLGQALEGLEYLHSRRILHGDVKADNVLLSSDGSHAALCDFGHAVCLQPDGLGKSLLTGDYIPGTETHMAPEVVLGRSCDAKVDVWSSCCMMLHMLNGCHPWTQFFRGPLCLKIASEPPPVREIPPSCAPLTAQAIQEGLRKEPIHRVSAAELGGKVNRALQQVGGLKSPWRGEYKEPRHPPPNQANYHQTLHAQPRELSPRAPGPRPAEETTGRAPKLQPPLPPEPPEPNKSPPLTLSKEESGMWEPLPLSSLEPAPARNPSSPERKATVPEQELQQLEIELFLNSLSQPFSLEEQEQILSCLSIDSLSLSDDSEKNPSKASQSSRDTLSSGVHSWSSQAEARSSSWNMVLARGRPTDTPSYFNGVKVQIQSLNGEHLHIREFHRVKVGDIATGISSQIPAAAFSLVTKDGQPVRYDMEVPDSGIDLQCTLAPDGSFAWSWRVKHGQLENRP
UniProt P40337: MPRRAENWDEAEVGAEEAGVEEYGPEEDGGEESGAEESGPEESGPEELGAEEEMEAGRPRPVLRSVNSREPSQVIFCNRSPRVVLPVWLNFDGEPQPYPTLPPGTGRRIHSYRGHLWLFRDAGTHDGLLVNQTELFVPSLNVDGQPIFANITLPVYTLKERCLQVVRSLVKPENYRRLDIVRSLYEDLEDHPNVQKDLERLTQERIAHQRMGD

Tests used:
[1] = biological target: T1, HA-TRAF2 (TNF-receptor-associated factor 2) (UniProt Q12933); assay: IP of ZFP91 (anti-FLAG) from HEK293 cells over-expressing ZFP91, NIK and TRAF2; Western anti-HA
T1 sequence (looked up): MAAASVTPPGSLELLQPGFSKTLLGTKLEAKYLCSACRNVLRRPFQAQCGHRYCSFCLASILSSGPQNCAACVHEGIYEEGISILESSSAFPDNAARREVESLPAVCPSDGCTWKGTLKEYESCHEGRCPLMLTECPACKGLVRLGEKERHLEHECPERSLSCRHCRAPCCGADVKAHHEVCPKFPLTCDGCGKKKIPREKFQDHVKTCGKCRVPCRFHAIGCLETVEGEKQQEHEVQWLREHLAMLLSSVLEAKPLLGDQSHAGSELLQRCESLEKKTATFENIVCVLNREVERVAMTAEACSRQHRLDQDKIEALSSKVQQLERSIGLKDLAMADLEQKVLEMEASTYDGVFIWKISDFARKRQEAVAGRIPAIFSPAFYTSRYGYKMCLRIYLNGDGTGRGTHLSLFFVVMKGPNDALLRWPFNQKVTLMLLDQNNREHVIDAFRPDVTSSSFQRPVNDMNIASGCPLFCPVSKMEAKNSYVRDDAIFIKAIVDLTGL

[2] = biological target: T1, HA-TRAF2 (TNF-receptor-associated factor 2); assay: co-immunoprecipitation (FIG. 22), told in the description
[3] = biological target: myc-NIK (NF-kB-inducing kinase, NIK/MAP3K14) (UniProt Q99558); assay: as above
[4] = biological target: HA-VHL (Von Hippel-Lindau protein) (UniProt P40337); assay: figure legend: IP anti-FLAG and anti-HA from HEK293 cells, Western anti-HA and anti-FLAG
[5] = biological target: T1, HA-TRAF2 (TNF-receptor-associated factor 2); assay: IP with ZFP91 from HEK293 cells over-expressing ZFP91, NIK and TRAF2, told in the description
[6] = biological target: myc-NIK (NF-kB-inducing kinase, NIK/MAP3K14) (UniProt Q99558); assay: as above
[7] = biological target: myc-NIK (NF-kB-inducing kinase, NIK/MAP3K14) (UniProt Q99558); assay: co-immunoprecipitation from HEK293 cells over-expressing myc-NIK and FLAG-ZFP91, Western blotting
[8] = biological target: T1, HA-TRAF2 (TNF-receptor-associated factor 2); assay: figure legend: IP with anti-FLAG, anti-NIK or anti-HA antibody from HEK293 cells, Western blotting
[9] = biological target: myc-NIK (NF-kB-inducing kinase, NIK/MAP3K14) (UniProt Q99558); assay: as above
[10] = biological target: HA-VHL (Von Hippel-Lindau protein) (UniProt P40337); assay: co-immunoprecipitation (FIG. 34), told in the description
[11] = biological target: HA-VHL (Von Hippel-Lindau protein) (UniProt P40337); assay: IP with anti-FLAG, anti-HA or anti-GAL-4 antibody from HEK293 cells, Western blotting, told in the description
[12] = biological target: myc-NIK (NF-kB-inducing kinase, NIK/MAP3K14) (UniProt Q99558); assay: IP of ZFP91 (anti-FLAG) from HEK293 cells over-expressing ZFP91, NIK and TRAF2; Western anti-NIK
[13] = biological target: HA-VHL (Von Hippel-Lindau protein) (UniProt P40337); assay: co-immunoprecipitation from HEK293T cells transfected with FLAG-ZFP91, HA-VHL and GAL4-HIF-1α in combination, Western blotting
[14] = biological target: T1, HA-TRAF2 (TNF-receptor-associated factor 2); assay: co-immunoprecipitation from HEK293 cells over-expressing HA-TRAF2 and FLAG-ZFP91, Western blotting

- binding [1]: binds
- binding [2]: binds
- binding [3]: binds
- binding [4]: binds
- binding [5]: binds
- binding [6]: binds
- binding [7]: binds
- binding [8]: binds
- binding [9]: binds
- binding [10]: binds
- binding [11]: binds
- binding [12]: binds
- binding [13]: binds
- binding [14]: binds
B1: FLAG-ZFP91 (Zinc Finger Protein 91 whose N-terminal was tagged with FLAG) (protein, human, UniProt Q96JP5 1-570, looked up, not shown: small tags and cut ends)
chain: MPGETEEPRPPEQQDQEGGEAAKAAPEEPQQRPPEAVAAAPAGTTSSRVLRGGRDRGRAAAAAAAAAVSRRRKAEYPRRRRSSPSARPPDVPGQQPQAAKSPSPVQGKKSPRLLCIEKVTTDKDPKEEKEEEDDSALPQEVSIAASRPSRGWRSSRTSVSRHRDTENTRSSRSKTGSLQLICKSEPNTDQLDYDVGEEHQSPGGISSEEEEEEEEEMLISEEEIPFKDDPRDETYKPHLERETPKPRRKSGKVKEEKEKKEIKVEVEVEVKEEENEIREDEEPPRKRGRRRKDDKSPRLPKRRKKPPIQYVRCEMEGCGTVLAHPRYLQHHIKYQHLLKKKYVCPHPSCGRLFRLQKQLLRHAKHHTDQRDYICEYCARAFKSSHNLAVHRMIHTGEKPLQCEICGFTCRQKASLNWHMKKHDADSFYQFSCNICGKKFEKKDSVVAHKAKSHPEVLIAEALAANAGALITSTDILGTNPESLTQPSDGQGLPLLPEPLGNSTSGECLLLEAEGMSKSYCSGTERVSLMADGKIFVGSGSSGGTEGLVMNSDILGATTEVLIEDSDSAGP
